These are yes or no findings as the source states them, for the method shown. In cells and extracts the contact can be indirect. Some results given as binding are weak or reduced against the parent protein; the word gives no strength.

Chains of the proteins cited; added tags and fusions are not shown. Residues count along the entry.
UniProt B2RPY5: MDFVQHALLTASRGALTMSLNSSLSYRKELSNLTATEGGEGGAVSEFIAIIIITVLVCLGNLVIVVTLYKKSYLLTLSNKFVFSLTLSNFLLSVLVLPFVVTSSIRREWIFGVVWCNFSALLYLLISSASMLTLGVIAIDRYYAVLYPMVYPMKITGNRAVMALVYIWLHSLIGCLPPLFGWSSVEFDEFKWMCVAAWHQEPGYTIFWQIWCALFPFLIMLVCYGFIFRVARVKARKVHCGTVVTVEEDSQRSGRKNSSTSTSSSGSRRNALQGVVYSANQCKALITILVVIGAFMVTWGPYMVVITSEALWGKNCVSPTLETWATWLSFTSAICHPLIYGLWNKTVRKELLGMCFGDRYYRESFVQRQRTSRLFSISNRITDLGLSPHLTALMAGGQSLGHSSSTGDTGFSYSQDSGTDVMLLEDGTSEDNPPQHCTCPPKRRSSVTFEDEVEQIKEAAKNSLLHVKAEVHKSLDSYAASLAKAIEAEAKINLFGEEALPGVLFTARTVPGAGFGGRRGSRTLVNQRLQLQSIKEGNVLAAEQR
UniProt P48432: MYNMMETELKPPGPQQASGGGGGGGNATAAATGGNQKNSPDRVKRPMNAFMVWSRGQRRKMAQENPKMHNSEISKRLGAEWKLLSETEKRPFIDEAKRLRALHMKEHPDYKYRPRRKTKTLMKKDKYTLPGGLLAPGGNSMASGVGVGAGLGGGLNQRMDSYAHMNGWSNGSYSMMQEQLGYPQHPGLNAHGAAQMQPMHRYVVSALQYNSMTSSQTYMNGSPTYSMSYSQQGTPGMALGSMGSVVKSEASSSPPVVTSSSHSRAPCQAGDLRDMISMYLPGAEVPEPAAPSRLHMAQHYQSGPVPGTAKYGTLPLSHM
UniProt P56726, residues 33-793: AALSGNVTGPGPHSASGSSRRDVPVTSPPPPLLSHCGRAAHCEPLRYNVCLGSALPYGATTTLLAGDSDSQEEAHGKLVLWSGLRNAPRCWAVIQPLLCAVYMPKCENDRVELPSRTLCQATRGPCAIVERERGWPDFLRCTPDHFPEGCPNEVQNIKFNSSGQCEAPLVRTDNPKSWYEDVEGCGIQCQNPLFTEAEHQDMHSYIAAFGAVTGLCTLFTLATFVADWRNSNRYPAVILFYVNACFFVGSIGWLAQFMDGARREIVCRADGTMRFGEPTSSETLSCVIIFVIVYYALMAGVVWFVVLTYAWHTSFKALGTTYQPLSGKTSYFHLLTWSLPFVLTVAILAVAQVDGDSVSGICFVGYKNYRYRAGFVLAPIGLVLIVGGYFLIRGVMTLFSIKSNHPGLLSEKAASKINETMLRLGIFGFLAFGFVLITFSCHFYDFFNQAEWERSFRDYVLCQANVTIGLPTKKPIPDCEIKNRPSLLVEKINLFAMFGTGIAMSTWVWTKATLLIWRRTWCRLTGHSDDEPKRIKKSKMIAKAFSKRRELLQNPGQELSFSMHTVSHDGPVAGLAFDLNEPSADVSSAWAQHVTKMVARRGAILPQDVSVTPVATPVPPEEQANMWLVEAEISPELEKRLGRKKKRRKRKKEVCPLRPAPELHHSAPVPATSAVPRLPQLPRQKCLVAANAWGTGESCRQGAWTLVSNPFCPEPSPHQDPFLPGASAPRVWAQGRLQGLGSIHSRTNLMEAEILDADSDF
UniProt Q640N2: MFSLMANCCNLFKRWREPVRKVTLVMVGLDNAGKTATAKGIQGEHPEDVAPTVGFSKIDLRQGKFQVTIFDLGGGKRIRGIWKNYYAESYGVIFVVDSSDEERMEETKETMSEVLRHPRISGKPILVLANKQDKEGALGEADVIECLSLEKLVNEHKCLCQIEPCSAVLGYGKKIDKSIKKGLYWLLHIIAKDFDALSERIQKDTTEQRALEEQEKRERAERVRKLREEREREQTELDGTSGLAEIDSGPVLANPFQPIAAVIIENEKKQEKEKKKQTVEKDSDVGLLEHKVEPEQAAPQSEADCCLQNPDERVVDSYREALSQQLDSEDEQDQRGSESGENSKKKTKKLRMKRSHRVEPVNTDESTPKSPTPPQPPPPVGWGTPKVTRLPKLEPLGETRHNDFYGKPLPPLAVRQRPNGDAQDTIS
UniProt P47746: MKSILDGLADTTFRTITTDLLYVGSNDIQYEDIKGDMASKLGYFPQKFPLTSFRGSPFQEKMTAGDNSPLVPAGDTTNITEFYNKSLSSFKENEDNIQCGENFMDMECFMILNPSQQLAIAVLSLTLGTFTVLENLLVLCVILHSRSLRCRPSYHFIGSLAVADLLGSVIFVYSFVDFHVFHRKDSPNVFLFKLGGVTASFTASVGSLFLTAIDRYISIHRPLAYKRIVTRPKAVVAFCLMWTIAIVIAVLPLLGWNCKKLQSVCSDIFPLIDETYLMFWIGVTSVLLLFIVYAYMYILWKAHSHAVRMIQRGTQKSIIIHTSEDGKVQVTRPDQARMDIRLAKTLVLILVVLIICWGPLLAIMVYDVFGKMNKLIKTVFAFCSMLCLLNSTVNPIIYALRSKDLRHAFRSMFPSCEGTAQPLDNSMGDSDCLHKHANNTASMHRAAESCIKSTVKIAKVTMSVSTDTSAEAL
UniProt P63094: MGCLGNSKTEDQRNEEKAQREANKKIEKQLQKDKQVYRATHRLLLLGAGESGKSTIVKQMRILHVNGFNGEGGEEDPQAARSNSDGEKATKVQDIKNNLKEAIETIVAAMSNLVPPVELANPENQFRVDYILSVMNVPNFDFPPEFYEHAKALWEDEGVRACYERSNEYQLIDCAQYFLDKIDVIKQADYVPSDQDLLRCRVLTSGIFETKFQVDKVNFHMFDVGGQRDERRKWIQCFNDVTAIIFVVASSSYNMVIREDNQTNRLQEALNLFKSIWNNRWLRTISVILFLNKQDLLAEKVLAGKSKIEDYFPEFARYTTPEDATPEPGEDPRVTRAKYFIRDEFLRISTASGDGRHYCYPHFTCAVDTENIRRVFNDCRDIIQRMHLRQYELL

Experimental findings from PMC6831672 are described below.

Assay [1] concerns the target GPR 161 (mouse (endogenous in C57BL/6J embryos)) (UniProt B2RPY5). In words: proximity ligation; DuoLink PLA on 7 um paraffin sections of paraformaldehyde-fixed GD 9.5 mouse embryo neural tube; pairs of primary antibodies bound within 40 nm; confocal imaging.
The target in assay [2] is Sox-2 (mouse (endogenous in C57BL/6J embryos)) (UniProt P48432). The description is as above.
The target of assay [3] is Smoothened (mouse (endogenous in C57BL/6J embryos)) (UniProt P56726). In words: co-IP; anti-Smo affinity resin, CHAPS-solubilised GD 8 whole mouse embryos pooled as a litter, 3 hrs at 0-4 °C; blots for CB1R and Gαs; dams treated with CB vehicle, alcohol 2.8 g/kg, CP 55,940 0.25 mg/kg or both.
The target of assay [4] is Arl13b (mouse (endogenous in C57BL/6J embryos)) (UniProt Q640N2). Put plainly: proximity ligation; DuoLink PLA on 7 um paraffin sections of paraformaldehyde-fixed GD 9.5 mouse embryo neural tube; pairs of primary antibodies bound within 40 nm; confocal imaging.

Take “CB1 receptor (from UniProt P47746 1-473)”: the values for the binding result in assay [1] and in assay [2] were “binds” and “no binding”, respectively.

For Gαs (from UniProt P63094 1-394), the binding entry in assay [3] is reported as “binds”.

Consider “Smoothened (from UniProt P56726 33-793) (receptor)”, for which, in assay [4], the binding entry was “no binding”.
